From publication PMC5148607
These are yes or no findings as the source states them, for the method shown. In cells and extracts the contact can be indirect. These calls come from enrichment with a bait or labelling near it, and not all partners need be listed.

Sequences of proteins named here, by UniProt entry; tags and fusion partners are left off.
UniProt P24610: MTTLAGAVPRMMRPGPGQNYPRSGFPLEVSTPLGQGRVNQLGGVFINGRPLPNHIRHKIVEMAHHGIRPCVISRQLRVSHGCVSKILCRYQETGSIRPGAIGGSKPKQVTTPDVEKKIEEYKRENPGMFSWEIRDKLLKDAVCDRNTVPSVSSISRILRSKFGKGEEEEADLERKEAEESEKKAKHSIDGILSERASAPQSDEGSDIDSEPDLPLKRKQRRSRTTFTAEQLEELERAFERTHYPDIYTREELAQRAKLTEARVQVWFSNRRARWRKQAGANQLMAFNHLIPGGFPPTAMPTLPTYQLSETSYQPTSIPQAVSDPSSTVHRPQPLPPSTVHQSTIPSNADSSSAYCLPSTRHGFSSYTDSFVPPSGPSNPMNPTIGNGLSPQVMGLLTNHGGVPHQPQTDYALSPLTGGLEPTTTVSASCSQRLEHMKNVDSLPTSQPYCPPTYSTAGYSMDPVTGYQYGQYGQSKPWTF

Experiments:
HA-tagged PAX3 = HA-tagged PAX3 (UniProt P24610); assay: affinity purification with mass spectrometry; immunoprecipitation of PAX3 from extracts of C2C12 cells transfected with HA-tagged Pax3; mass spectrometry
GST-PAX3 = GST-PAX3 (UniProt P24610); assay: affinity purification with mass spectrometry; protein extracts of E10.5 wild type mouse limb buds incubated with GST-PAX3 protein, then immunoprecipitation with an anti-PAX3 antibody; mass spectrometry; only the target purified

binding (HA-tagged PAX3): binds | binding (GST-PAX3): binds
B1: DNM2 (dynamin-2) (protein, UniProt P39054 1-870)
chain: MGNRGMEELIPLVNKLQDAFSSIGQSCHLDLPQIAVVGGQSAGKSSVLENFVGRDFLPRGSGIVTRRPLILQLIFSKTEYAEFLHCKSKKFTDFDEVRQEIEAETDRVTGTNKGISPVPINLRVYSPHVLNLTLIDLPGITKVPVGDQPPDIEYQIKDMILQFISRESSLILAVTPANMDLANSDALKLAKEVDPQGLRTIGVITKLDLMDEGTDARDVLENKLLPLRRGYIGVVNRSQKDIEGKKDIRAALAAERKFFLSHPAYRHMADRMGTPHLQKTLNQQLTNHIRESLPTLRSKLQSQLLSLEKEVEEYKNFRPDDPTRKTKALLQMVQQFGVDFEKRIEGSGDQVDTLELSGGARINRIFHERFPFELVKMEFDEKDLRREISYAIKNIHGVRTGLFTPDLAFEAIVKKQVVKLKEPCLKCVDLVIQELISTVRQCTSKLSSYPRLREETERIVTTYIREREGRTKDQILLLIDIEQSYINTNHEDFIGFANAQQRSTQLNKKRAIPNQGEILVIRRGWLTINNISLMKGGSKEYWFVLTAESLSWYKDEEEKEKKYMLPLDNLKIRDVEKGFMSNKHVFAIFNTEQRNVYKDLRQIELACDSQEDVDSWKASFLRAGVYPEKDQAENEDGAQENTFSMDPQLERQVETIRNLVDSYVAIINKSIRDLMPKTIMHLMINNTKAFIHHELLAYLYSSADQSSLMEESAEQAQRRDDMLRMYHALKEALNIIGDISTSTVSTPVPPPVDDTWLQNTSGHSPTPQRRPVSSVHPPGRPPAVRGPTPGPPLIPMPVGATSSFSAPPIPSRPGPQSVFANNDPFSAPPQIPSRPARIPPGIPPGVPSRRAPAAPSRPTIIRPAEPSLLD
